# From PMC6137200
# Chains of the proteins cited; added tags and fusions are not shown.
# UniProt Q7Z3U7: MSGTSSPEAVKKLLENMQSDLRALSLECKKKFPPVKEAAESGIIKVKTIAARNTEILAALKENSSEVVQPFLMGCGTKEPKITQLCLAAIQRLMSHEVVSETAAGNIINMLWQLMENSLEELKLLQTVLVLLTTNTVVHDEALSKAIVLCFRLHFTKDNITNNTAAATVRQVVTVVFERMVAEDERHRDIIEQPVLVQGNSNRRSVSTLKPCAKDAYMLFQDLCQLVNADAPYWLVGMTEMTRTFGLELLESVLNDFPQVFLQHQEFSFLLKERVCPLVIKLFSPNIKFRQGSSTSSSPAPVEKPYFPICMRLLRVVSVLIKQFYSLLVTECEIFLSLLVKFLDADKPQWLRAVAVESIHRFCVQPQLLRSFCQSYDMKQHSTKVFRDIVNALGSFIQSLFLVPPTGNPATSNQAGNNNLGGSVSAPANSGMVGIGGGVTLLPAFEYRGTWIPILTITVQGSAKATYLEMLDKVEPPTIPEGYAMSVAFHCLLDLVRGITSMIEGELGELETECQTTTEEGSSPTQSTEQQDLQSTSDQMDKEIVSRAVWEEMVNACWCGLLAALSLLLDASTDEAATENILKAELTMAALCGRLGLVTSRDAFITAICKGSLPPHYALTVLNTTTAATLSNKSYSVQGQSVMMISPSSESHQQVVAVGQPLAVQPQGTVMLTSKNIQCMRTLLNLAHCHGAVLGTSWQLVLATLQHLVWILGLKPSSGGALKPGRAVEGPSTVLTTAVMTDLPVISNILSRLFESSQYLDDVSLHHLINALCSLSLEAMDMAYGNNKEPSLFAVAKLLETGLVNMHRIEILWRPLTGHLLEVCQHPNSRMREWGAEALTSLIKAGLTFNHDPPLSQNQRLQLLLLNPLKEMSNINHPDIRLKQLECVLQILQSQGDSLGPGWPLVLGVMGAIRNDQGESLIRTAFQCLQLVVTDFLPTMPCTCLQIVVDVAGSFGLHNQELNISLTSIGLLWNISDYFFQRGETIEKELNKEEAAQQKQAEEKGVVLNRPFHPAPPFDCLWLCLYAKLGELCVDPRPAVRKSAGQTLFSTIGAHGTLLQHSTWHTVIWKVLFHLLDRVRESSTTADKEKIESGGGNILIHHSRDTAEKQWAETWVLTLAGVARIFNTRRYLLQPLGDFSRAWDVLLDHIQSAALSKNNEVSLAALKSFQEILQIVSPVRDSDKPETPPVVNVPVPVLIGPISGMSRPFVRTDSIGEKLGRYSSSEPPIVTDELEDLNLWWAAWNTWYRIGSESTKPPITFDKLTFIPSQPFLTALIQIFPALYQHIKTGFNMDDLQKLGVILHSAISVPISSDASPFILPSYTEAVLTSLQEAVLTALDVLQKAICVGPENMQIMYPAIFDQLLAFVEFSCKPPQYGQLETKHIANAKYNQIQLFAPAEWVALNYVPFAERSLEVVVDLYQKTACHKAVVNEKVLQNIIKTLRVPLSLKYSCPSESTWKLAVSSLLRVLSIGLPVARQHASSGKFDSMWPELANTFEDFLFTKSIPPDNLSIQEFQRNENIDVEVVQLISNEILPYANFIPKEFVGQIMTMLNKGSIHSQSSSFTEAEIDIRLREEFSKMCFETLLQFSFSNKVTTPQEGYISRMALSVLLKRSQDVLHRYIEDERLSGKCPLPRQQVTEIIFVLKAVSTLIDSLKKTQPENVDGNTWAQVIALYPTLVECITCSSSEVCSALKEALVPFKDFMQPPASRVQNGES
# UniProt Q13596: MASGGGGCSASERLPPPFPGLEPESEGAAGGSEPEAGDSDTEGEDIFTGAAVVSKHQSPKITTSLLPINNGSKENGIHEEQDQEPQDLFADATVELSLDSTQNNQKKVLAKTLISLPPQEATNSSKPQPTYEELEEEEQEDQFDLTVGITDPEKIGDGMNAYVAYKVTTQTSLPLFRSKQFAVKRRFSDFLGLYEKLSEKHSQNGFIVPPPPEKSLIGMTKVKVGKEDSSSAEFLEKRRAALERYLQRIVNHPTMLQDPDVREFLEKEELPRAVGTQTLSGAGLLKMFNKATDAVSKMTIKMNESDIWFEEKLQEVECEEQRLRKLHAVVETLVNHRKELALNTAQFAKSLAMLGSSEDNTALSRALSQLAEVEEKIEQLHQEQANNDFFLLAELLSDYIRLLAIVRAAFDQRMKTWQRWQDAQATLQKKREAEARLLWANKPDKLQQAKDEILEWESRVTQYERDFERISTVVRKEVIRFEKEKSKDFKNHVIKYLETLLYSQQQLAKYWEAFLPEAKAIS
# UniProt O00560: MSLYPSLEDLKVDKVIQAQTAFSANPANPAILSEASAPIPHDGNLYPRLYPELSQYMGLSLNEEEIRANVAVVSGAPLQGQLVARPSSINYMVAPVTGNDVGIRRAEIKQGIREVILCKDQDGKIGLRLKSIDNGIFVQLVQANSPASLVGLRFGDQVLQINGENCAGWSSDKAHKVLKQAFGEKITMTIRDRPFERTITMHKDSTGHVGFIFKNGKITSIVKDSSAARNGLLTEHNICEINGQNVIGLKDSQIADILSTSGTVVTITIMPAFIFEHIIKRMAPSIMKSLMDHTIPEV
# No constants are given. Whether binding was seen depends on the method and setting. In cells and extracts the contact can be indirect. These calls come from enrichment with a bait or labelling near it, and not all partners need be listed. No binding means not detected with the bait.
# B1: FIG4 (endogenous, RPE-1) (protein, UniProt Q92562 1-907)
# chain: MPTAAAPIISSVQKLVLYETRARYFLVGSNNAETKYRVLKIDRTEPKDLVIIDDRHVYTQQEVRELLGRLDLGNRTKMGQKGSSGLFRAVSAFGVVGFVRFLEGYYIVLITKRRKMADIGGHAIYKVEDTNMIYIPNDSVRVTHPDEARYLRIFQNVDLSSNFYFSYSYDLSHSLQYNLTVLRMPLEMLKSEMTQNRQESFDIFEDEGLITQGGSGVFGICSEPYMKYVWNGELLDIIKSTVHRDWLLYIIHGFCGQSKLLIYGRPVYVTLIARRSSKFAGTRFLKRGANCEGDVANEVETEQILCDASVMSFTAGSYSSYVQVRGSVPLYWSQDISTMMPKPPITLDQADPFAHVAALHFDQMFQRFGSPIIILNLVKEREKRKHERILSEELVAAVTYLNQFLPPEHTIVYIPWDMAKYTKSKLCNVLDRLNVIAESVVKKTGFFVNRPDSYCSILRPDEKWNELGGCVIPTGRLQTGILRTNCVDCLDRTNTAQFMVGKCALAYQLYSLGLIDKPNLQFDTDAVRLFEELYEDHGDTLSLQYGGSQLVHRVKTYRKIAPWTQHSKDIMQTLSRYYSNAFSDADRQDSINLFLGVFHPTEGKPHLWELPTDFYLHHKNTMRLLPTRRSYTYWWTPEVIKHLPLPYDEVICAVNLKKLIVKKFHKYEEEIDIHNEFFRPYELSSFDDTFCLAMTSSARDFMPKTVGIDPSPFTVRKPDETGKSVLGNKSNREEAVLQRKTAASAPPPPSEEAVSSSSEDDSGTDREEEGSVSQRSTPVKMTDAGDSAKVTENVVQPMKELYGINLSDGLSEEDFSIYSRFVQLGQSQHKQDKNSQQPCSRCSDGVIKLTPISAFSQDNIYEVQPPRVDRKSTEIFQAHIQASQGIMQPLGKEDSSMYREYIRNRYL
# B2: SNX32 (endogenous, RPE-1) (protein, UniProt Q86XE0 1-403)
# chain: METYAEVGKEGKPSCASVDLQGDSSLQVEISDAVSERDKVKFTVQTKSCLPHFAQTEFSVVRQHEEFIWLHDAYVENEEYAGLIIPPAPPRPDFEASREKLQKLGEGDSSVTREEFAKMKQELEAEYLAIFKKTVAMHEVFLQRLAAHPTLRRDHNFFVFLEYGQDLSVRGKNRKELLGGFLRNIVKSADEALITGMSGLKEVDDFFEHERTFLLEYHTRIRDACLRADRVMRAHKCLADDYIPISAALSSLGTQEVNQLRTSFLKLAELFERLRKLEGRVASDEDLKLSDMLRYYMRDSQAAKDLLYRRLRALADYENANKALDKARTRNREVRPAESHQQLCCQRFERLSDSAKQELMDFKSRRVSSFRKNLIELAELELKHAKASTLILRNTLVALKGEP
# B3: syndecan-1 (endogenous, RPE-1) (protein, UniProt P18827 23-310)
# chain: QIVATNLPPEDQDGSGDDSDNFSGSGAGALQDITLSQQTPSTWKDTQLLTAIPTSPEPTGLEATAASTSTLPAGEGPKEGEAVVLPEVEPGLTAREQEATPRPRETTQLPTTHLASTTTATTAQEPATSHPHRDMQPGHHETSTPAGPSQADLHTPHTEDGGPSATERAAEDGASSQLPAAEGSGEQDFTFETSGENTAVVAVEPDRRNQSPVDQGATGASQGLLDRKEVLGGVIAGGLVGLIFAVCLVGFMLYRMKKKDEGSYSLEEPKQANGGAYQKPTKQEEFYA
# Target: GFP-SNX3 (RPE-1, lentivirally transduced) (human) (UniProt O60493)
# Test: affinity purification with mass spectrometry; SILAC: RPE1 cells lentivirally transduced with GFP (R0K0) or GFP-SNX3 (R6K4); GFP-trap beads 60 min; LC-MS/MS on Orbitrap Velos; filter > 3-fold enrichment over GFP and two or more peptides
row,binding,Molecule
1,binds,"MON2 (endogenous, RPE-1) (from UniProt Q7Z3U7 1-1717)"
2,no binding,"SNX1 (endogenous, RPE-1) (from UniProt Q13596 1-522)"
3,binds,"VPS26A (endogenous, RPE-1) (from UniProt O75436 1-327)"
4,binds,"syntenin (endogenous, RPE-1) (from UniProt O00560 1-298)"

# Target: GFP-SNX3 (RPE-1, lentivirally transduced) (human) (UniProt O60493)
# Test: as above
# Remark: another data set of the same source
row,binding,Molecule
1,binds,B1
2,no binding,B2
3,binds,B3
